These are yes or no findings as the source states them, for the method shown. In cells and extracts the contact can be indirect. Binding calls can cover weak binding; strength is not graded here. Where a sequence is shown, tags or fusion partners need not be part of it.
Molecular target: T1, GST-XopA (X. campestris pv. vesicatoria) (UniProt B0RX62)
T1 sequence: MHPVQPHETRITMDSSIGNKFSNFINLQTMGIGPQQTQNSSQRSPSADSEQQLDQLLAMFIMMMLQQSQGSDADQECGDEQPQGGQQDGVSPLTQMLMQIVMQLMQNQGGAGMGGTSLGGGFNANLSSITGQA
Assay: pull-down; GST or GST fusion protein from E. coli immobilized on glutathione sepharose, incubated with an E. coli lysate containing the c-Myc epitope-tagged partner; elution with 10 mM reduced glutathione; immunoblot with anti-c-Myc and anti-GST antibodies; only the target purified

| Substance | binding |
| --- | --- |
| C-terminal cleavage product of HrcU-c-Myc (X. campestris pv. vesicatoria) (domain or fragment) | no binding |
| HpaC_(1–182)-c-Myc (X. campestris pv. vesicatoria) (domain or fragment) | binds |

Source: publication PMC2427183
